Assay results reported in patent US11426444B2, “Compositions, methods and uses for treating post-traumatic stress disorder” (priority 2017, dated 2022).

System: C57Bl/6J mice
Test: Open field motor activity (OF) after CSD (Example 4)
Assay type: in vivo, mouse
Details: 15 min open field
Procedure: The mouse chronic social defeat (“CSD”) model has been accepted as a model of PTSD [Flandreau, et al, 2018]. This model involves exposure of C57Bl/6J mice to chronic stress by aggressor mice (male CD-1 ex-breeders) for a defined period of 15 days. Starting from day 15, mice were further tested in the open field (OF) model.
Behavioral tests such as Open field motor activity (OF) were also conducted. See the schematic of FIG. 7.
In this model set up the test was conducted 15 days after the last CSD session. The mouse was placed on the Open Field apparatus floor in the center of empty arena for 15 min without exposure to any other stimuli. The following parameters were calculated from the data: distance moved, number of vertical rearing's, velocity and % resting time (no movement activity). Open field activity chambers (Med Associates Inc, St Albans, Vt.; 27×27×20.3 cm) are equipped with IR beams with red light conditions. A mouse is considered to have no movement activity when the mouse is not breaking two adjacent beams consecutively (distance between two adjacent beams is about 1.7 cm).

Substance: Teneurin C-Terminal Associated Peptide-1 (QQLLGTGRVQGYDGYFVLSVEQYLELSDSANNIHFMRQSEI; C-terminal amide; Mouse TCAP1 (41 a.a.)) [TCAP-1]
- distance moved (locomotor activity, LMA): all groups moved similar distances
- velocity (locomotor activity) (FIG. 11): do not have impaired locomotor activity
